# Assay results as given in the supplement of paper PMC10331698.
# ± gives the standard deviation of the averaged measurements. Most entries show no effect beyond the scatter of the controls.
# Tests used:
# Test in all cases: level (log10 ratio to DMSO vehicle control); higher = higher biomarker level / cell amount than vehicle control
# [1] = compound: C=CC(=O)OCC(F)(F)C(F)(F)C(F)(F)C(F)(F)C(F)(F)C(F)(F)C(F)(F)C(F)F [1H,1H,9H-Perfluorononyl acrylate]; conditions: 2200 nM; in DMSO
# Procedure: (§1)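 BioMAP Diversity Plus panel of 12 human primary cell co-culture systems (3C, 4H, LPS, SAg, BT, BF4T, BE3C, CASM3C, HDF3CGF, KF3CT, MyoF, Mphg). Compounds were added 1 h before stimulation and left for 24 h (MyoF 48 h; BT 72 h for soluble read-outs or 6 d for IgG). Biomarkers were read by ELISA, cytotoxicity by SRB, PBMC viability and proliferation by Alamar Blue. Each well value was divided by the mean of 8 DMSO control wells on the same plate and log10 transformed; duplicate blinded samples were tested at 4 concentrations.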
# [2] = compound: CCOC(=O)CC(=O)C(F)(F)C(F)(F)F [Ethyl pentafluoropropionyl acetate]; conditions: 2200 nM; in DMSO
# Procedure: as §1
# [3] = compound: FC(F)(F)C(F)(F)C(F)(F)C(F)(F)C(F)(F)C(F)(F)C(F)(F)C(F)(F)CCS [2-(Perfluorooctyl)ethanthiol]; conditions: in DMSO
# Procedure: as §1
# Perfluorooctanamidine = compound: N=C(N)C(F)(F)C(F)(F)C(F)(F)C(F)(F)C(F)(F)C(F)(F)C(F)(F)F [Perfluorooctanamidine]; conditions: in DMSO
# Procedure: as §1
# [4] = compound: O=C(CC(=O)C(F)(F)C(F)(F)C(F)(F)F)c1cccs1 [(Perfluorobutyryl)-2-thenoylmethane]; conditions: 2200 nM; in DMSO
# Procedure: as §1
# Perfluorodecanoic acid = compound: O=C(O)C(F)(F)C(F)(F)C(F)(F)C(F)(F)C(F)(F)C(F)(F)C(F)(F)C(F)(F)C(F)(F)F [Perfluorodecanoic acid]; conditions: in DMSO
# Procedure: as §1
# Perfluorononanoic acid = compound: O=C(O)C(F)(F)C(F)(F)C(F)(F)C(F)(F)C(F)(F)C(F)(F)C(F)(F)C(F)(F)F [Perfluorononanoic acid]; conditions: 2200 nM; in DMSO
# Procedure: as §1
# [5] = compound: O=C(O)C(F)(F)C(F)(F)C(F)(F)C(F)(F)C(F)(F)C(F)(F)C(F)(F)F [Ammonium perfluorooctanoate]; conditions: 2200 nM; in DMSO
# Procedure: as §1
# Perfluorooctanoic acid = compound: O=C(O)C(F)(F)C(F)(F)C(F)(F)C(F)(F)C(F)(F)C(F)(F)C(F)(F)F [Perfluorooctanoic acid]; conditions: 2200 nM; in DMSO
# Procedure: as §1
# [6] = compound: O=C(O)C(F)(F)OC(F)(F)C(F)(F)OC(F)(F)C(F)(F)OC(F)(F)C(F)(F)C(F)(F)C(F)(F)F [Perfluoro-3,6,9-trioxatridecanoic acid]; conditions: 2200 nM; in DMSO
# Procedure: as §1
# [7] = compound: O=C(O)C(F)(F)OC(F)(F)C(F)(F)OC(F)(F)F [Perfluoro-3,6-dioxaheptanoic acid]; conditions: 2200 nM; in DMSO
# Procedure: as §1
# [8] = compound: O=C(O)CCC(F)(C(F)(F)F)C(F)(F)F [4,4-bis(Trifluoromethyl)-4-fluoropropanoic acid]; conditions: 2200 nM; in DMSO
# Procedure: as §1
# [9] = compound: OCC(F)(F)C(F)(F)C(F)(F)C(F)(F)C(F)(F)C(F)(F)C(F)(F)C(F)(F)CO [1H,1H,10H,10H-Perfluorodecane-1,10-diol]; conditions: 2200 nM; in DMSO
# Procedure: as §1
# [10] = compound: OCC(F)(F)OC(F)(F)C(F)(F)OC(F)(F)C(F)(F)OC(F)(F)CO [1H,1H,11H,11H-Perfluorotetraethylene glycol]; conditions: 2200 nM; in DMSO
# Procedure: as §1
Test System,level (log10) [1],level (log10) [2],level (log10) ([3]; 740 nM),level (log10) ([3]; 2200 nM),level (log10) (Perfluorooctanamidine; 2200 nM),level (log10) (Perfluorooctanamidine; 6700 nM),level (log10) (Perfluorooctanamidine; 20000 nM),level (log10) (Perfluorooctanamidine; 60000 nM),level (log10) [4],level (log10) (Perfluorodecanoic acid; 2200 nM),level (log10) (Perfluorodecanoic acid; 6700 nM),level (log10) (Perfluorodecanoic acid; 20000 nM),level (log10) (Perfluorononanoic acid),level (log10) [5],level (log10) (Perfluorooctanoic acid),level (log10) [6],level (log10) [7],level (log10) [8],level (log10) [9],level (log10) [10]
MyoF:CXCL8/IL-8,-0.0345 ± 0.011,-0.0045 ± 0.018,-0.0035 ± 0.022,-0.0215 ± 0.018,-0.0095 ± 0.076,-0.003 ± 0.041,0.03 ± 0.0099,0.043,-0.019 ± 0.0071,0.0285 ± 0.069,0.0205 ± 0.037,0.0085 ± 0.016,-0.0155 ± 0.076,0.0105 ± 0.012,0.0115 ± 0.00071,0.016 ± 0.048,-0.0305 ± 0.097,0.011 ± 0.0099,-0.0005 ± 0.039,-0.0105 ± 0.0021
MyoF:alpha-SM Actin,-0.0145 ± 0.011,0.0265 ± 0.025,0.003 ± 0.031,0.0145 ± 0.013,0.0135 ± 0.026,0.0015 ± 0.054,-0.009 ± 0.042,0.066,0.01 ± 0.031,0.018 ± 0.024,0.031 ± 0.027,-0.04 ± 0.016,0.0035 ± 0.03,0.0275 ± 0.026,-0.004 ± 0.014,0.0075 ± 0.0092,-0.0175 ± 0.0035,0.053 ± 0.045,0.004 ± 0.021,0 ± 0.033
KF3CT:CXCL10/IP-10,-0.0015 ± 0.013,0.0045 ± 0.00071,-0.006 ± 0.018,-0.0115 ± 0.0092,0.0165 ± 0.026,0.012 ± 0.042,0.0025 ± 0.04,0.04,-0.0085 ± 0.005,-0.008 ± 0.0042,-0.044 ± 0.017,-0.134 ± 0.028,-0.028 ± 0.018,0.0025 ± 0.0092,-0.0065 ± 0.0021,0.0285 ± 0.037,0.004 ± 0.0085,-0.004 ± 0.0057,0.006 ± 0.017,0.0065 ± 0.0064
BE3C:tPA,-0.001 ± 0.0085,0.008 ± 0.085,0 ± 0.018,0.0015 ± 0.0021,0.0275 ± 0.035,0 ± 0.0028,-0.006 ± 0.0014,0.019,-0.031 ± 0.0085,0.049 ± 0.03,0.0215 ± 0.026,-0.546 ± 0.0085,0.02 ± 0.035,-0.0165 ± 0.036,-0.0035 ± 0.073,0.043 ± 0.054,-0.0305 ± 0.029,0.013 ± 0.0071,0.02 ± 0.017,0.0145 ± 0.061
KF3CT:CD54/ICAM-1,0.019 ± 0.011,-0.0165 ± 0.032,-0.001 ± 0.0057,0.003 ± 0.023,0.0045 ± 0.015,0.0055 ± 0.033,0.0175 ± 0.022,0.064,-0.026 ± 0.0071,-0.011 ± 0.023,0.0095 ± 0.013,-0.003 ± 0.0028,-0.0165 ± 0.0021,-0.0105 ± 0.0078,0.005 ± 0.013,0.007,-0.004 ± 0.0071,-0.002 ± 0.0099,-0.0215 ± 0.0078,-0.011 ± 0.025
SAg:CXCL8/IL-8,-0.0165 ± 0.028,0.0085 ± 0.04,0.0055 ± 0.087,0.0085 ± 0.011,0.0055 ± 0.023,0.005 ± 0.018,0.023 ± 0.0085,-0.022,-0.0285 ± 0.022,0.033 ± 0.0085,-0.0325 ± 0.03,-0.064 ± 0.038,0.033 ± 0.042,0.021 ± 0.014,0.047 ± 0.048,-0.0235 ± 0.032,0.0415 ± 0.057,0.048 ± 0.058,0.0185 ± 0.043,0.033 ± 0.079
BE3C:CXCL9/MIG,0.005 ± 0.0042,-0.008 ± 0.018,0.0065 ± 0.033,-0.0005 ± 0.028,0.022 ± 0.0042,0.0135 ± 0.018,0.0085 ± 0.0092,0.037,0.001 ± 0.016,0 ± 0.0028,-0.003 ± 0.0042,-0.715 ± 0.9,-0.011 ± 0.0085,0.004 ± 0.018,0 ± 0.014,0.0155 ± 0.019,-0.0115 ± 0.0078,-0.006 ± 0.0071,-0.0065 ± 0.013,-0.008 ± 0.0099
KF3CT:CXCL8/IL-8,0.0005 ± 0.011,-0.0025 ± 0.0035,-0.015 ± 0.0042,-0.0125 ± 0.025,0.0075 ± 0.0064,0.0135 ± 0.021,0.0305 ± 0.018,0.043,-0.015 ± 0.038,0.0195 ± 0.016,-0.0225 ± 0.011,-0.0035 ± 0.018,0 ± 0.041,-0.0155 ± 0.03,-0.0015 ± 0.011,-0.0115 ± 0.03,0.004 ± 0.018,-0.027 ± 0.024,0.005 ± 0.014,0.0025 ± 0.064
3C:CD106/VCAM-1,-0.0095 ± 0.00071,-0.0145 ± 0.0078,-0.0215 ± 0.0078,-0.021 ± 0.0028,-0.01 ± 0.0099,-0.017 ± 0.028,-0.037 ± 0.031,-0.088,-0.004 ± 0.033,-0.0015 ± 0.04,-0.0005 ± 0.012,-0.001 ± 0.021,-0.0215 ± 0.018,0.0075 ± 0.0035,-0.0335 ± 0.042,-0.02 ± 0.0028,-0.0055 ± 0.021,-0.0095 ± 0.029,-0.013 ± 0.0014,0.0015 ± 0.005
BT:B cell Proliferation,-0.0135 ± 0.013,0.026 ± 0.024,-0.012 ± 0.021,0.0245 ± 0.018,0.0185 ± 0.012,-0.0005 ± 0.011,-0.002 ± 0.017,-0.086,-0.018 ± 0.016,-0.006 ± 0.02,0.0135 ± 0.04,0.0395 ± 0.03,0.0505 ± 0.0078,0.008 ± 0.038,0.0165 ± 0.025,-0.017 ± 0.025,0.028 ± 0.05,0.0095 ± 0.03,0.016 ± 0.0042,-0.004 ± 0.016
LPS:SRB,0.006 ± 0.0014,0.007 ± 0.0071,0.004 ± 0.025,0.0025 ± 0.0064,-0.008 ± 0.0042,-0.005 ± 0.0085,0.006 ± 0.011,-0.035,-0.003 ± 0.0014,0.011 ± 0.0071,0.01 ± 0.0071,0.003 ± 0.0042,0.0075 ± 0.0064,-0.004 ± 0.011,-0.007 ± 0.0057,0.004 ± 0.013,-0.0045 ± 0.0021,0.0055 ± 0.019,0.003 ± 0.024,0.002 ± 0.0071
HDF3CGF:PAI-I,0.0095 ± 0.066,-0.0005 ± 0.029,-0.0385 ± 0.054,-0.066 ± 0.05,-0.035 ± 0.011,-0.0225 ± 0.013,0.02 ± 0.014,-0.233,0.0545 ± 0.052,0.112 ± 0.073,0.15 ± 0.051,-0.107 ± 0.1,0.0195 ± 0.081,0.057 ± 0.054,0.0225 ± 0.019,0.0015 ± 0.057,-0.043 ± 0.042,0.026 ± 0.041,0.0005 ± 0.03,0.0085 ± 0.033

# Three neighbouring entries from above, for reference:
Test System,level (log10) [1],level (log10) [2],level (log10) ([3]; 740 nM),level (log10) ([3]; 2200 nM),level (log10) (Perfluorooctanamidine; 2200 nM),level (log10) (Perfluorooctanamidine; 6700 nM),level (log10) (Perfluorooctanamidine; 20000 nM),level (log10) (Perfluorooctanamidine; 60000 nM),level (log10) [4],level (log10) (Perfluorodecanoic acid; 2200 nM),level (log10) (Perfluorodecanoic acid; 6700 nM),level (log10) (Perfluorodecanoic acid; 20000 nM),level (log10) (Perfluorononanoic acid),level (log10) [5],level (log10) (Perfluorooctanoic acid),level (log10) [6],level (log10) [7],level (log10) [8],level (log10) [9],level (log10) [10]
MyoF:CXCL8/IL-8,-0.0345 ± 0.011,-0.0045 ± 0.018,-0.0035 ± 0.022,-0.0215 ± 0.018,-0.0095 ± 0.076,-0.003 ± 0.041,0.03 ± 0.0099,0.043,-0.019 ± 0.0071,0.0285 ± 0.069,0.0205 ± 0.037,0.0085 ± 0.016,-0.0155 ± 0.076,0.0105 ± 0.012,0.0115 ± 0.00071,0.016 ± 0.048,-0.0305 ± 0.097,0.011 ± 0.0099,-0.0005 ± 0.039,-0.0105 ± 0.0021
MyoF:alpha-SM Actin,-0.0145 ± 0.011,0.0265 ± 0.025,0.003 ± 0.031,0.0145 ± 0.013,0.0135 ± 0.026,0.0015 ± 0.054,-0.009 ± 0.042,0.066,0.01 ± 0.031,0.018 ± 0.024,0.031 ± 0.027,-0.04 ± 0.016,0.0035 ± 0.03,0.0275 ± 0.026,-0.004 ± 0.014,0.0075 ± 0.0092,-0.0175 ± 0.0035,0.053 ± 0.045,0.004 ± 0.021,0 ± 0.033
KF3CT:CXCL10/IP-10,-0.0015 ± 0.013,0.0045 ± 0.00071,-0.006 ± 0.018,-0.0115 ± 0.0092,0.0165 ± 0.026,0.012 ± 0.042,0.0025 ± 0.04,0.04,-0.0085 ± 0.005,-0.008 ± 0.0042,-0.044 ± 0.017,-0.134 ± 0.028,-0.028 ± 0.018,0.0025 ± 0.0092,-0.0065 ± 0.0021,0.0285 ± 0.037,0.004 ± 0.0085,-0.004 ± 0.0057,0.006 ± 0.017,0.0065 ± 0.0064
